PubChem BioAssay AID504744, Drosophila RNAi Screening Center | 2011
Purpose: 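Find genes whose loss alters insulin-driven dAkt phosphorylation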 (primary screen). Cell system: Drosophila Kc167 cells. Reagents: long dsRNA against Drosophila genes, 250 ng dsRNA per well of a 384-well plate. Timing: 3 days of knock-down, then overnight serum-free starvation before stimulation. Challenge: bovine insulin at 387 nM for 10 minutes after 12 h without serum. Measurement: 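In-cell antibody fluorescence for phospho-dAkt in each well over DNA-dye signal, with log2 residuals expressed as z-scores adjusted for cell count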. Call rule: 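Hit in the insulin screen when the two-replicate mean z-score is more extreme than plus or minus 2.5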.
The screen tested about 23,000 reagents; below is a random part of those that have a named target and a result. In the full data, 98 (0.43%) are marked active. 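Only hit calls are given; the phospho-dAkt signals, z-scores and hit direction were not deposited.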 The numbers tell different reagents against one gene apart.

no.	predicted target	dsRNA no.	Outcome
1	Srp19	1	inactive
2	CG3251	1	inactive
3	CG32206	1	inactive
4	CG32206	2	inactive
5	CG32206	3	inactive
6	CG32206	4	inactive
7	CG32206	5	inactive
8	CG17648	1	inactive
9	CG4440	1	inactive
10	CG31404	1	inactive
11	CG17666	1	inactive
12	Syx5	1	inactive
13	su(sable)	1	inactive
14	Mur82C	1	inactive
15	Mur82C	2	inactive
16	CG2258	1	inactive
17	Cyp12a4	1	inactive
18	CG13437	1	inactive
19	robl62A	1	inactive
20	CG15576	1	inactive
21	Tmem63	1	inactive
22	comt	1	inactive
23	PCNA2	1	inactive
24	CG4461	1	inactive
25	brun	1	inactive
26	Amt	1	inactive
27	ebi	1	inactive
28	CG42699	1	inactive
29	CG42699	2	inactive
30	pll	1	inactive
31	EndoU	1	inactive
32	RpS4	1	inactive
33	Ret	1	inactive
34	Ret	2	inactive
35	CG16868	1	inactive
36	Nf-YC	1	inactive
37	CG11912	1	inactive
38	Ddc	1	inactive

8 consecutive entries from above, quoted:
no.	predicted target	dsRNA no.	Outcome
17	Cyp12a4	1	inactive
18	CG13437	1	inactive
19	robl62A	1	inactive
20	CG15576	1	inactive
21	Tmem63	1	inactive
22	comt	1	inactive
23	PCNA2	1	inactive
24	CG4461	1	inactive

The listing continues:
no.	predicted target	dsRNA no.	Outcome
39	Neb-cGP	1	inactive
40	Rrp47	1	inactive
41	Arf6	1	inactive
42	Acsf2	1	inactive
43	TTLL4B	1	inactive
44	Or83c	1	inactive
45	Hpf1	1	inactive
46	Trs20	1	inactive
47	CG34196	1	inactive
48	Cdk8	1	inactive
49	CG9257	1	inactive
50	fwd	1	inactive
51	CG12991	1	inactive
52	CG5902	1	inactive
53	Pmvk	1	inactive
54	ohgt	1	inactive
55	Pef	1	inactive
56	Or45a	1	inactive
57	CG8945	1	inactive
58	CG8945	2	inactive
59	Ugt305A1	1	inactive
60	CG4558	1	inactive
61	CG13566	1	inactive
62	CG9702	1	inactive
63	Sod3	1	inactive
64	CG34283	1	inactive
